Each structure is given as a SMILES string.

Sequences of proteins named here, by UniProt entry; tags and fusion partners are left off.
UniProt P41595, whole entry: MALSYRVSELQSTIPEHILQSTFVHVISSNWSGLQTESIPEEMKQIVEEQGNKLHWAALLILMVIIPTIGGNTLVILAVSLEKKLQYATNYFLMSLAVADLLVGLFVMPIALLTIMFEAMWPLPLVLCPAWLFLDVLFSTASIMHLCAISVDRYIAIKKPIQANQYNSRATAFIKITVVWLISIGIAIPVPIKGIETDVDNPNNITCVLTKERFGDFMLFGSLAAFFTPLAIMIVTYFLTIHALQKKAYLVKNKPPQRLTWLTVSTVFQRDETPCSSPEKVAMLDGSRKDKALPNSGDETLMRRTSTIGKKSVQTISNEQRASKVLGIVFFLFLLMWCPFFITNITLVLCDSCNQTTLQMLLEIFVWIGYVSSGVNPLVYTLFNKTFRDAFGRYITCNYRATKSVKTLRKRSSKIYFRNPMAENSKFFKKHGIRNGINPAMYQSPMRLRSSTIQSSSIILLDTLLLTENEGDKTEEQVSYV

This note sets out measurements from BindingDB's records for doi:10.1111/j.1476-5381.1995.tb14977.x (Syntex Discovery Research, 1995).

The test deals with 5-hydroxytryptamine receptor 2B (Homo sapiens, UniProt P41595).

The Ki is a dissociation constant, usually derived from enzyme kinetics or from competition with a known ligand. Consider `CC[C@@H](CO)NC(=O)[C@@H]1C=C2c3cccc4c3c(cn4C)C[C@H]2N(C)C1`, for which the Ki turned out to be 7.94 nM.
